Experimental data published in the supplement of paper PMC10849652.
The list shows a part of the results.

Sequences of proteins named here, by UniProt entry; tags and fusion partners are left off. A change or cut given only in a name is not applied to a line headed by its entry.
UniProt Q9UP95: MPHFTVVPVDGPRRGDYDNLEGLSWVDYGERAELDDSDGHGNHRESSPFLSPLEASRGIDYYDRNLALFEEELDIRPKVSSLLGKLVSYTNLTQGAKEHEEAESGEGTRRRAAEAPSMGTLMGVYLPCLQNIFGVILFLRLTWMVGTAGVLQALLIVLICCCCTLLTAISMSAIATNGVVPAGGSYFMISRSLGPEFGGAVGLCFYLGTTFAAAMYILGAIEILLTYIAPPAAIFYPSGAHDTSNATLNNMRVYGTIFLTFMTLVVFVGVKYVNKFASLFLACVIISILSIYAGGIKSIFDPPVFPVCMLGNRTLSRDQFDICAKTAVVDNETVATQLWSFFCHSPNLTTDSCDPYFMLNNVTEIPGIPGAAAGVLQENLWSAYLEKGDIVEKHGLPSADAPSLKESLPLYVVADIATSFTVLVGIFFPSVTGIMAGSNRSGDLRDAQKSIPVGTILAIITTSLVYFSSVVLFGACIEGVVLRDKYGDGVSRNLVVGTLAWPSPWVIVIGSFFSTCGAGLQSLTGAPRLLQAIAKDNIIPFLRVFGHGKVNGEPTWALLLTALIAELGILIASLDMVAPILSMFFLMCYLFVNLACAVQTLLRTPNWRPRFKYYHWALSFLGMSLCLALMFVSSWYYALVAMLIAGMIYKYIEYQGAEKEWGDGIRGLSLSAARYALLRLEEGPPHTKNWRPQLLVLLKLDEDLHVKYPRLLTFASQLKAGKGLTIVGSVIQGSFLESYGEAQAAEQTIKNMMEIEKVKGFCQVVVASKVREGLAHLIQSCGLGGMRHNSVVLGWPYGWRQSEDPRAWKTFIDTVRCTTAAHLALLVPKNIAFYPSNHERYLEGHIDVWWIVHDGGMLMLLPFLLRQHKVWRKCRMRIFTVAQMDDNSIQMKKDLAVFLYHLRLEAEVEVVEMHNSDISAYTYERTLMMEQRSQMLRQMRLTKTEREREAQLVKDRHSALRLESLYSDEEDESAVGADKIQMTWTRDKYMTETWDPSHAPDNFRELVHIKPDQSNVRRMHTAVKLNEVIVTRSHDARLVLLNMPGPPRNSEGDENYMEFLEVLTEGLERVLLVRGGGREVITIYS
UniProt Q6NT16: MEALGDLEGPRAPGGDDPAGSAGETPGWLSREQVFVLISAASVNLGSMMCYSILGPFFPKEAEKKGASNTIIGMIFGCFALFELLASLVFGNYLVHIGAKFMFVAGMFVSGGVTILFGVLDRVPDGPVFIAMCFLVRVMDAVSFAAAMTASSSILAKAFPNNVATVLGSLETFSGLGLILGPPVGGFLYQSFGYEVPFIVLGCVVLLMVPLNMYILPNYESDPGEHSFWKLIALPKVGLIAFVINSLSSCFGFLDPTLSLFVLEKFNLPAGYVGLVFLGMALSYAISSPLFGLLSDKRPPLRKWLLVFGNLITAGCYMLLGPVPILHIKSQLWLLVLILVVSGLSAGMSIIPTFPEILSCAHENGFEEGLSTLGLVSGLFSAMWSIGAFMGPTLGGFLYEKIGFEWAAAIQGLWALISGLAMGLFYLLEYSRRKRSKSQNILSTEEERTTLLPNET
UniProt Q9NP59: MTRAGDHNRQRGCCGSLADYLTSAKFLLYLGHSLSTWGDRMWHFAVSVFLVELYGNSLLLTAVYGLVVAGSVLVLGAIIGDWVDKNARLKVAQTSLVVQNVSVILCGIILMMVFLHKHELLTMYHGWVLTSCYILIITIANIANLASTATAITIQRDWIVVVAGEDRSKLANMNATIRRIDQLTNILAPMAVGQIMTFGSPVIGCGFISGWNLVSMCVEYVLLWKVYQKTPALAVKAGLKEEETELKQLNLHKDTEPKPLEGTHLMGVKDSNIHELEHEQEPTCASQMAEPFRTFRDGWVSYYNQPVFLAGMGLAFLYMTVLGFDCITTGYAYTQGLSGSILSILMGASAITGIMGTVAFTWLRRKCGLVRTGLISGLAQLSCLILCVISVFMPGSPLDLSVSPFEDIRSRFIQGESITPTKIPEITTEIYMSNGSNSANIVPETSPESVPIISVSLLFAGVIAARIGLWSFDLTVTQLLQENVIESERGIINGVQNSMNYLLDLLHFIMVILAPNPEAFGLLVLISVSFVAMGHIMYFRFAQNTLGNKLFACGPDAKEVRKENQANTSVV
UniProt P12235: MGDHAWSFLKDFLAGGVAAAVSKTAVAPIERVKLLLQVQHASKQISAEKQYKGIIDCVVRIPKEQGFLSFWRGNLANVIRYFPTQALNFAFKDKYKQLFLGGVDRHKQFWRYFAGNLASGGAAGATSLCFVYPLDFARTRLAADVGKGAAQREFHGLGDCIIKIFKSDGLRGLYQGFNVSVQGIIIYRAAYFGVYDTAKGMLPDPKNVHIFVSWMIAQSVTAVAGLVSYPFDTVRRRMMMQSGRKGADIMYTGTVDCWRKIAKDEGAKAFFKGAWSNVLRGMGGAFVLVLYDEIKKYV
UniProt Q96QD8: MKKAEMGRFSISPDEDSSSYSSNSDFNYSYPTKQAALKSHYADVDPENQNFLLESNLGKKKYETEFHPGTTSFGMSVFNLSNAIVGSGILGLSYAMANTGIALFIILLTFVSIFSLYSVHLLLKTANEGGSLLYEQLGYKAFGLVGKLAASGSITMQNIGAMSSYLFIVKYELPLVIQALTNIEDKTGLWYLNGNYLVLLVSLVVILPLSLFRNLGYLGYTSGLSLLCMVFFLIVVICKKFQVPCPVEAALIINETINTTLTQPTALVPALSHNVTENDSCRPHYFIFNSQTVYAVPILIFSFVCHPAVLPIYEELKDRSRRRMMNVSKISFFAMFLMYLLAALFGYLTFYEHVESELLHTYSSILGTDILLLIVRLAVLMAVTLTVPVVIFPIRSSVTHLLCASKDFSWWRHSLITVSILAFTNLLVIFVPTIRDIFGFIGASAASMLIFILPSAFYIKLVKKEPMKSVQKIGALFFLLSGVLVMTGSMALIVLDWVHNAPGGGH
UniProt Q9Y289: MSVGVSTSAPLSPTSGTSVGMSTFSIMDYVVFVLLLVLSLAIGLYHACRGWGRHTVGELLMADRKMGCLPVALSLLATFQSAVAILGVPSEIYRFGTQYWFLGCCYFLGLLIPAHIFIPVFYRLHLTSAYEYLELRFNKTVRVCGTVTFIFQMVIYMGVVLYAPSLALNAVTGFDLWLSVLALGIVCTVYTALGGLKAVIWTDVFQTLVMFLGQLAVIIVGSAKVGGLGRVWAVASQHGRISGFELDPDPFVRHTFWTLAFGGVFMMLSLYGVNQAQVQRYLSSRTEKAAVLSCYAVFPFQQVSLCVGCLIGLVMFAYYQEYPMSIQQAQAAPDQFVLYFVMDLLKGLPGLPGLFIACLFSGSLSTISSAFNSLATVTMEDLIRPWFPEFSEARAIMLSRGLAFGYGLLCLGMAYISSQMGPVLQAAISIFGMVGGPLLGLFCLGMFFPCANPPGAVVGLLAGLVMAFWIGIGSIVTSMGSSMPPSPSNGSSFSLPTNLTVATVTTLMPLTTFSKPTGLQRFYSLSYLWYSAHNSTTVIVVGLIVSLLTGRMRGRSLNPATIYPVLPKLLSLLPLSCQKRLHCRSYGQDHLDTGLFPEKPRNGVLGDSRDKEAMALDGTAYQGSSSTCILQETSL
UniProt O75387: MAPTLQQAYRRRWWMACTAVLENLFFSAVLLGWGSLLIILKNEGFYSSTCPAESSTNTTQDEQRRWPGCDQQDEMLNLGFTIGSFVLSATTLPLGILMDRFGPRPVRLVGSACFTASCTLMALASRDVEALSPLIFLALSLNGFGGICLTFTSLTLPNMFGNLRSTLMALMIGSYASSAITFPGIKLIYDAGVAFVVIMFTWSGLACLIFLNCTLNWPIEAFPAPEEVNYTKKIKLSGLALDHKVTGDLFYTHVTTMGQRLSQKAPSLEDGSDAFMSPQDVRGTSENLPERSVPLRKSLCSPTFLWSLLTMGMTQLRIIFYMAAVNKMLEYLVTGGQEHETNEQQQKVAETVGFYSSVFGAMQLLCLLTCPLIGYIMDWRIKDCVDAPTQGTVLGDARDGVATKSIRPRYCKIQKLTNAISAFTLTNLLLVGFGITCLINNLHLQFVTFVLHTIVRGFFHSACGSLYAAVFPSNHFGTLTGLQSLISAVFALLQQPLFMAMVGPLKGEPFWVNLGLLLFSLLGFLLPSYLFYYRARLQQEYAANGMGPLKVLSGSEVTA
UniProt Q9NYZ2: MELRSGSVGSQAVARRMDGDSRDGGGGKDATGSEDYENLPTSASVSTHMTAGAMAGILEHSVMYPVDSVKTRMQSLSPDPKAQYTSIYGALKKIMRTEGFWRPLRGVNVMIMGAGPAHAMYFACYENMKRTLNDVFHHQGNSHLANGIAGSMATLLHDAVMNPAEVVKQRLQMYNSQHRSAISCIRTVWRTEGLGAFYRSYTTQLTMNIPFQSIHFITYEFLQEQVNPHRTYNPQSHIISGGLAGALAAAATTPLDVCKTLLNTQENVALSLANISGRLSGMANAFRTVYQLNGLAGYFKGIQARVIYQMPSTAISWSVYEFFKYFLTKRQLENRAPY
UniProt P08195: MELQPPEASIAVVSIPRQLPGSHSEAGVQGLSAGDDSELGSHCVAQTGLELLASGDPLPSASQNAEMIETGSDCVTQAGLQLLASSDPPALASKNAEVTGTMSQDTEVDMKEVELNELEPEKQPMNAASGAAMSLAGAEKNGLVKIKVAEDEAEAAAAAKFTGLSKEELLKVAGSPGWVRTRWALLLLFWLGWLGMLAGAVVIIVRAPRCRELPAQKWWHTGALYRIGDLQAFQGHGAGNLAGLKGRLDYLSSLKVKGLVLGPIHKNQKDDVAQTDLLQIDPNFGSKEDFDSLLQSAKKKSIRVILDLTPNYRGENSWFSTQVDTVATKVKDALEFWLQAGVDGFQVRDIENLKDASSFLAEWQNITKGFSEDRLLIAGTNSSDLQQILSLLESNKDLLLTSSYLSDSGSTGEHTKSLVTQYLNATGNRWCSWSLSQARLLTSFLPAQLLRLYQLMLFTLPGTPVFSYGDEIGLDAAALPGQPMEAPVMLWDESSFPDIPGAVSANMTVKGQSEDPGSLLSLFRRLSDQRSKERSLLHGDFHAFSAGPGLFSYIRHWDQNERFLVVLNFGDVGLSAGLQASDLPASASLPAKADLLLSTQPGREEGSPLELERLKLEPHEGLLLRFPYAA
UniProt Q9Y2D2: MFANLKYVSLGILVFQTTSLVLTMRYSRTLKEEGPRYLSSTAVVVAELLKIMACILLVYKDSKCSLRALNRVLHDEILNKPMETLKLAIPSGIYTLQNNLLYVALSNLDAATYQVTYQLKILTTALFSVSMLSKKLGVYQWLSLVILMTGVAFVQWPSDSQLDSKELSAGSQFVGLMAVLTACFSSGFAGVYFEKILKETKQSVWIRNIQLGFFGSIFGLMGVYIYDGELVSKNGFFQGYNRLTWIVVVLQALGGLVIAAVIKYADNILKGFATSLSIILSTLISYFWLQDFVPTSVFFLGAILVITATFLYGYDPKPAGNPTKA
UniProt P53007, whole entry, looked up: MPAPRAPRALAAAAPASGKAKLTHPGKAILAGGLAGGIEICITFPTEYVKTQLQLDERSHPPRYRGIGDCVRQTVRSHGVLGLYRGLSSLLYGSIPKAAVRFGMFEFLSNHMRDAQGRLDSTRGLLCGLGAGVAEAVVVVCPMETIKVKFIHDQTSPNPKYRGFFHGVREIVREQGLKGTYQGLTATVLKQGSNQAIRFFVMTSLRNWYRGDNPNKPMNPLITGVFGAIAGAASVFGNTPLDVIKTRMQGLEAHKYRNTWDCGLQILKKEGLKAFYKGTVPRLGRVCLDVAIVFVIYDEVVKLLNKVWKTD
UniProt Q14493, whole entry, looked up: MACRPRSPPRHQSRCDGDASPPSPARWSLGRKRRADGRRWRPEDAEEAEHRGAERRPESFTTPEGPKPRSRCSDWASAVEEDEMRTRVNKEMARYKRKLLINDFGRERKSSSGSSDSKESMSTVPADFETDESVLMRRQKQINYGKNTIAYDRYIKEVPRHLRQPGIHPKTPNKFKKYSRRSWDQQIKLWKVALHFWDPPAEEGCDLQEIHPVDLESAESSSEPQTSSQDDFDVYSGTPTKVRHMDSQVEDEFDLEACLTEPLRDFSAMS
UniProt Q8NBW4: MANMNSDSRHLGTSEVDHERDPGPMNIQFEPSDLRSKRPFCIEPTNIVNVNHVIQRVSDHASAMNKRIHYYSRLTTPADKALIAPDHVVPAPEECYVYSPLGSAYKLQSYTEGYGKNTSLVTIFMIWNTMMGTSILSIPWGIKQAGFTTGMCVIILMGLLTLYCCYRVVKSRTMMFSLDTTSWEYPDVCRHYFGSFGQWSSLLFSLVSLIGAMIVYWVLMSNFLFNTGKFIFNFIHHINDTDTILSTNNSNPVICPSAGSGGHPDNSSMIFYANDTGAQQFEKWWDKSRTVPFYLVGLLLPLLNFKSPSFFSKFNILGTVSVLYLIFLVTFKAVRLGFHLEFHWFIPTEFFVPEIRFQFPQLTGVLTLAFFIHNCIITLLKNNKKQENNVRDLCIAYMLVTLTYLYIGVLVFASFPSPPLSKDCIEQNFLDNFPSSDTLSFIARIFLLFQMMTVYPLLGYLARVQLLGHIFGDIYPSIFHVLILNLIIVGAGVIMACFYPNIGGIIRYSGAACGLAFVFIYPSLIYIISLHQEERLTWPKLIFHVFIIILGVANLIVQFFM

compound: C1=CC2=NC=CN=C2C=C1/C=C/3\C(=O)NC(=O)S3; assay: log2 fold change, soluble protein after heating vs DMSO (PISA); higher = thermal stabilisation; K562 cells, 10 uM, 30 min; active = over 0.2 and 3.5 SD of the protein, either way, in both replicates (recomputed)
Summary of the method: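 K562 cells (2×10^6 cells/mL) were treated with 10 μM compound for 30 min, and aliquots were heated for 3 min over 48°C-58°C. Pooled aliquots were extracted in PBS with 0.5% NP-40 at 4°C, and the supernatant after 21,000xg for 90 min was measured by TMTpro 16plex LC-MS/MS with channel sums equalised. Reported thermal stability, relative to control samples and from duplicates, is a log2 fold change.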

log2 fold change, inactive:
SLC12A4 (UniProt Q9UP95) 0.152
SLC35C2 isoform 3 (UniProt Q9NQQ7) 0.116
SLC25A20 (UniProt O43772) 0.052
SLC18B1 (UniProt Q6NT16) 0
SLC31A1 (UniProt O15431) 0.101
SLC2A3 (UniProt P11169) 0.021
SLC4A1AP (UniProt Q9BWU0) 0.029
SLC40A1 (UniProt Q9NP59) 0.132
SLC38A1 (UniProt Q9H2H9) 0.066
SLC30A5 (UniProt Q8TAD4) 0.106
SLC25A16 (UniProt P16260) -0.038
SLC35A4 (UniProt L0R6Q1) 0.059
SLC25A4 (UniProt P12235) 0.042
SLC39A6 (UniProt Q13433) -0.024
SLC25A51 (UniProt Q9H1U9) 0.032
SLC38A2 (UniProt Q96QD8) 0.093
SLC38A7 (UniProt Q9NVC3) 0.088
SLC25A46 (UniProt Q96AG3) -0.003
SLC5A6 (UniProt Q9Y289) 0.056
SLC20A1 (UniProt Q8WUM9) 0.025
SLC43A1 (UniProt O75387) -0.014
SLC1A3 (UniProt P43003) 0.001
SLC30A6 isoform 2 (UniProt Q6NXT4) 0.002
SLC25A37 (UniProt Q9NYZ2) -0.082
SLC7A1 (UniProt P30825) 0.056
SLC2A1 (UniProt P11166) 0.016
SLC3A2 isoform 3 (UniProt P08195) -0.01
SLC33A1 (UniProt O00400) 0.063
SLC35A3 isoform 2 (UniProt Q9Y2D2) 0.084
SLC3A2 (UniProt F5GZS6) 0.059
SLC44A2 isoform 2 (UniProt Q8IWA5) -0.096
SLC4A2 (UniProt P04920) 0.047
SLC35F6 (UniProt Q8N357) -0.047
SLC37A4 isoform 2 (UniProt O43826) 0.042
SLC10A4 (UniProt Q96EP9) 0.03
SLC25A1 (UniProt P53007) 0.033
SLBP (UniProt Q14493) 0.035
SLC38A9 (UniProt Q8NBW4) 0.063

Random excerpt: two entries already listed
log2 fold change, inactive:
SLC20A1 (UniProt Q8WUM9) 0.025
SLC25A46 (UniProt Q96AG3) -0.003
